# Results deposited as PubChem BioAssay AID743454 (Peter MacCallum Cancer Centre, 2014)
# Test: 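Search for knock-downs that restore vorinostat killing in resistant colon cancer cells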 (primary screen)
# Cells: human HCT116-VR colon cancer cells, selected for vorinostat resistance
# Knock-down reagent: siRNA pool against human genes, 40 nM siRNA pool
# Time to read-out: vorinostat for 24 h, read-out about 72 h after transfection
# Treatment: vorinostat at 2.5 µM final
# Detection: 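Cell viability by CellTiter-Fluor and caspase 3/7 activity by luminescence, each scaled to mock wells per plate, duplicates averaged, then robust z-scored over all plates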
# Scale: viability robust z-score: higher = more viable cells than screen typical; caspase robust z-score: higher = more caspase 3/7 activity than screen typical
# Hit rule: 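a knock-down is a hit when classed RV1 or RV2 for lowered viability, or CA1 or CA2 for caspase activation; those lethal without drug were dropped; hits were retested singly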
# The whole screen tested about 18,000 reagents; below is an unselected part. Over the whole deposit, 450 (2.5%) are marked active. 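Single biological run; no consistent viability z cut-off exists, so the class columns, not z-scores, define the calls.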 Entries without a mark were called inactive. No sequences are given here.
Target gene,viability hit class,caspase hit class,viability robust z-score,caspase robust z-score
LDLRAD4 (GeneID 753),no change,no change,0.74,-1.04
SMC4 (GeneID 10051),no change,no change,-0.45,0.36
PRUNE1 (GeneID 58497),no change,no change,-1.25,2.08
SAR1A (GeneID 56681),no change,no change,1.75,-0.22
OR52R1 (GeneID 119695),no change,no change,-0.54,-0.84
KIAA1328 (GeneID 57536),no change,no change,1.08,0.44
PARK7 (GeneID 11315),no change,no change,1.01,1.54
CS (GeneID 1431),no change,no change,1.5,-0.42
CSTPP1 (GeneID 79096),no change,no change,1.02,-0.12
GRID2 (GeneID 2895),no change,no change,0.43,-0.06
PSMC1 (GeneID 5700),no change,no change,-4.27,3.08
STX11 (GeneID 8676),no change,no change,1.86,1.75
KDELR3 (GeneID 11015),no change,no change,-0.28,2.66
VASN (GeneID 114990),no change,no change,0.3,-0.5
GAL3ST2 (GeneID 64090),no change,no change,-0.84,3.2
TSTD2 (GeneID 158427),no change,no change,-0.44,-0.68
TGM6 (GeneID 343641),no change,no change,-1.02,1.32
DAB2 (GeneID 1601),no change,no change,-2.5,1.89
DENND10 (GeneID 404636),no change,no change,1.79,0.14
RSPO1 (GeneID 284654),no change,no change,-0.89,1.21
COX7B (GeneID 1349),no change,no change,1.01,-0.41
ABL2 (GeneID 27),no change,no change,0.68,-0.3
SYNC (GeneID 81493),no change,no change,-0.9,0.38
MFHAS1 (GeneID 9258),no change,no change,-0.17,0.42
CHMP4B (GeneID 128866),no change,no change,-2.17,4.61
ZNF536 (GeneID 9745),no change,no change,0.36,-0.09
TULP2 (GeneID 7288),no change,no change,-0.93,1.44
LOXL2 (GeneID 4017),no change,no change,-1.73,1.9
ZNF593 (GeneID 51042),no change,no change,-0.3,1.76
VMP1 (GeneID 81671),no change (active),CA1 (caspase activation),-1.93,6.26
KLHDC4 (GeneID 54758),no change,no change,0.96,-0.78
FSTL4 (GeneID 23105),no change,no change,1.07,1.14
MYL12A (GeneID 10627),no change,no change,0.78,-0.58
TRIM43B (GeneID 653192),no change,no change,0.16,-0.76
CNST (GeneID 163882),no change,no change,-0.8,0.32
RPL7A (GeneID 6130),no change,no change,-4.7,-0.58
TSGA13 (GeneID 114960),no change,no change,1.18,-0.6
HSD17B4 (GeneID 3295),no change,no change,0.84,-0.82
TJP1 (GeneID 7082),no change,no change,1.25,0.49

Continued; the last 10 above are carried over.
Target gene,viability hit class,caspase hit class,viability robust z-score,caspase robust z-score
VMP1 (GeneID 81671),no change (active),CA1 (caspase activation),-1.93,6.26
KLHDC4 (GeneID 54758),no change,no change,0.96,-0.78
FSTL4 (GeneID 23105),no change,no change,1.07,1.14
MYL12A (GeneID 10627),no change,no change,0.78,-0.58
TRIM43B (GeneID 653192),no change,no change,0.16,-0.76
CNST (GeneID 163882),no change,no change,-0.8,0.32
RPL7A (GeneID 6130),no change,no change,-4.7,-0.58
TSGA13 (GeneID 114960),no change,no change,1.18,-0.6
HSD17B4 (GeneID 3295),no change,no change,0.84,-0.82
TJP1 (GeneID 7082),no change,no change,1.25,0.49
APCDD1L (GeneID 164284),no change,no change,-0.9,1.21
IDO1 (GeneID 3620),no change,no change,0.06,-0.56
CR1 (GeneID 1378),no change,no change,1.47,-0.22
SNUPN (GeneID 10073),no change,no change,-0.11,3.09
VCX2 (GeneID 51480),no change,no change,1.14,-0.78
MTHFD1 (GeneID 4522),no change,no change,0.58,-0.78
PAX1 (GeneID 5075),no change,no change,-0.06,-0.04
MORN3 (GeneID 283385),no change,no change,-0.8,0.44
IGHMBP2 (GeneID 3508),no change,no change,-1.04,0.43
SYNGR4 (GeneID 23546),no change,no change,-0.01,3.67
CHMP2A (GeneID 27243),no change,no change,-0.89,2.29
ANP32CP (GeneID 23520),no change,no change,-1.74,0.06
FOXB2 (GeneID 442425),no change,no change,0.65,0.03
ASPDH (GeneID 554235),no change,no change,-0.23,3.76
AIPL1 (GeneID 23746),no change,no change,0.2,-0.51
OR51A7 (GeneID 119687),no change,no change,-0.78,0.47
TSPYL1 (GeneID 7259),no change,no change,-0.19,-1.04
G6PC3 (GeneID 92579),no change,no change,-0.11,-0.78
TBX1 (GeneID 6899),no change,no change,-0.8,0.6
FANCA (GeneID 2175),no change (active),CA1 (caspase activation),-2.17,9.66
ETNPPL (GeneID 64850),no change,no change,-0.18,-0.45
ETV4 (GeneID 2118),no change,no change,0.38,-0.94
PRKRA (GeneID 8575),no change,no change,0.24,2.39
FAXC (GeneID 84553),no change,no change,-1.23,-0.44
KIR3DL2 (GeneID 3812),no change,no change,1.25,-0.14
PI4KA (GeneID 5297),no change,no change,-1.07,0.24
HIPK1 (GeneID 204851),no change,no change,1.32,0.22
GLTP (GeneID 51228),no change,no change,-0.39,3.41
ACTN3 (GeneID 89),no change,no change,0.97,-0.32
BCL2L15 (GeneID 440603),no change,no change,-0.52,-0.03
KMT2B (GeneID 9757),no change,no change,-0.94,0.65
A3GALT2 (GeneID 127550),no change,no change,1.02,0.36
GGNBP2 (GeneID 79893),no change,no change,-0.1,-0.81
ZNF75A (GeneID 7627),no change,no change,-0.05,0.02
